This is an account of results in the supplement of paper PMC12819154, “High-throughput peptide-centric local stability assay extends protein–ligand identification to membrane proteins, tissues and bacteria” (Nature Structural & Molecular Biology, 2025).

Amino acid sequences for entries named in this document (tags omitted). A change or cut given only in a name is not applied to a line headed by its entry.
UniProt Q9H467: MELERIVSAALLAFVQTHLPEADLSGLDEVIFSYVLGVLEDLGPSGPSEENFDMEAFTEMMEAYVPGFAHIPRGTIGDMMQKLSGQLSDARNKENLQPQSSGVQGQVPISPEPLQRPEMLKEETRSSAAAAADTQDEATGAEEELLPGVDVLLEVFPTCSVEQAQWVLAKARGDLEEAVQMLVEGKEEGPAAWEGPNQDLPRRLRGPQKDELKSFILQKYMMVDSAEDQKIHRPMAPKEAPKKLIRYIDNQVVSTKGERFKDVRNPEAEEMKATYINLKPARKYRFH
UniProt Q9H2K2: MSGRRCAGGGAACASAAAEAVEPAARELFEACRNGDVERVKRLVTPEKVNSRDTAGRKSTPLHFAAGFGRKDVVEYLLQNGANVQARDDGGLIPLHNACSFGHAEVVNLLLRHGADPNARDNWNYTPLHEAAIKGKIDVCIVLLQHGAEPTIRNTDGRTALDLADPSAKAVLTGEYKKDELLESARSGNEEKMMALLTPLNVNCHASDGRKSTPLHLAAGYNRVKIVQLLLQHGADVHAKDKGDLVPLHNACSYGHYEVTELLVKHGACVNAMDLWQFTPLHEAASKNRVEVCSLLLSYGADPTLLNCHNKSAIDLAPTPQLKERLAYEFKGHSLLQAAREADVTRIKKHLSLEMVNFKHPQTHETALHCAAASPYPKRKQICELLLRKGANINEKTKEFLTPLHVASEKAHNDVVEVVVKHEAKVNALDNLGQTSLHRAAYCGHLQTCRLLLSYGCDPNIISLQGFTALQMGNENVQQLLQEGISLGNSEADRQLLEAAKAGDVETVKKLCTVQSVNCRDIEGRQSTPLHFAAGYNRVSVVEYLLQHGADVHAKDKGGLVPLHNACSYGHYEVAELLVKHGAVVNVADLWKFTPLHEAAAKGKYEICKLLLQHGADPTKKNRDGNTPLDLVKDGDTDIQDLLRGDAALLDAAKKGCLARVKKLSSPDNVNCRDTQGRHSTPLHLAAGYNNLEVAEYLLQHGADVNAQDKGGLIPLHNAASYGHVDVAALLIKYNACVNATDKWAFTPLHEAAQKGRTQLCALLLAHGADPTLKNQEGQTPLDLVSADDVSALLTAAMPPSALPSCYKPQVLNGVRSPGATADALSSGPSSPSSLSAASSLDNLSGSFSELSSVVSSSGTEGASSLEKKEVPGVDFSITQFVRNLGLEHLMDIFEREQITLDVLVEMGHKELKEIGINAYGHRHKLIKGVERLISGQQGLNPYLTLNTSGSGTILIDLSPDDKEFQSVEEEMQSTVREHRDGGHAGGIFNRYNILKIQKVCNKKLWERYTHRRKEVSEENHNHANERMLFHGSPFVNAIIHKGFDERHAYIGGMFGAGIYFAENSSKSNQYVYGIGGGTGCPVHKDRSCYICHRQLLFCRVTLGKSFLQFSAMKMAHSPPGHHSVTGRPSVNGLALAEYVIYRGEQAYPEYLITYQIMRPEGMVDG
UniProt Q9H2Y7: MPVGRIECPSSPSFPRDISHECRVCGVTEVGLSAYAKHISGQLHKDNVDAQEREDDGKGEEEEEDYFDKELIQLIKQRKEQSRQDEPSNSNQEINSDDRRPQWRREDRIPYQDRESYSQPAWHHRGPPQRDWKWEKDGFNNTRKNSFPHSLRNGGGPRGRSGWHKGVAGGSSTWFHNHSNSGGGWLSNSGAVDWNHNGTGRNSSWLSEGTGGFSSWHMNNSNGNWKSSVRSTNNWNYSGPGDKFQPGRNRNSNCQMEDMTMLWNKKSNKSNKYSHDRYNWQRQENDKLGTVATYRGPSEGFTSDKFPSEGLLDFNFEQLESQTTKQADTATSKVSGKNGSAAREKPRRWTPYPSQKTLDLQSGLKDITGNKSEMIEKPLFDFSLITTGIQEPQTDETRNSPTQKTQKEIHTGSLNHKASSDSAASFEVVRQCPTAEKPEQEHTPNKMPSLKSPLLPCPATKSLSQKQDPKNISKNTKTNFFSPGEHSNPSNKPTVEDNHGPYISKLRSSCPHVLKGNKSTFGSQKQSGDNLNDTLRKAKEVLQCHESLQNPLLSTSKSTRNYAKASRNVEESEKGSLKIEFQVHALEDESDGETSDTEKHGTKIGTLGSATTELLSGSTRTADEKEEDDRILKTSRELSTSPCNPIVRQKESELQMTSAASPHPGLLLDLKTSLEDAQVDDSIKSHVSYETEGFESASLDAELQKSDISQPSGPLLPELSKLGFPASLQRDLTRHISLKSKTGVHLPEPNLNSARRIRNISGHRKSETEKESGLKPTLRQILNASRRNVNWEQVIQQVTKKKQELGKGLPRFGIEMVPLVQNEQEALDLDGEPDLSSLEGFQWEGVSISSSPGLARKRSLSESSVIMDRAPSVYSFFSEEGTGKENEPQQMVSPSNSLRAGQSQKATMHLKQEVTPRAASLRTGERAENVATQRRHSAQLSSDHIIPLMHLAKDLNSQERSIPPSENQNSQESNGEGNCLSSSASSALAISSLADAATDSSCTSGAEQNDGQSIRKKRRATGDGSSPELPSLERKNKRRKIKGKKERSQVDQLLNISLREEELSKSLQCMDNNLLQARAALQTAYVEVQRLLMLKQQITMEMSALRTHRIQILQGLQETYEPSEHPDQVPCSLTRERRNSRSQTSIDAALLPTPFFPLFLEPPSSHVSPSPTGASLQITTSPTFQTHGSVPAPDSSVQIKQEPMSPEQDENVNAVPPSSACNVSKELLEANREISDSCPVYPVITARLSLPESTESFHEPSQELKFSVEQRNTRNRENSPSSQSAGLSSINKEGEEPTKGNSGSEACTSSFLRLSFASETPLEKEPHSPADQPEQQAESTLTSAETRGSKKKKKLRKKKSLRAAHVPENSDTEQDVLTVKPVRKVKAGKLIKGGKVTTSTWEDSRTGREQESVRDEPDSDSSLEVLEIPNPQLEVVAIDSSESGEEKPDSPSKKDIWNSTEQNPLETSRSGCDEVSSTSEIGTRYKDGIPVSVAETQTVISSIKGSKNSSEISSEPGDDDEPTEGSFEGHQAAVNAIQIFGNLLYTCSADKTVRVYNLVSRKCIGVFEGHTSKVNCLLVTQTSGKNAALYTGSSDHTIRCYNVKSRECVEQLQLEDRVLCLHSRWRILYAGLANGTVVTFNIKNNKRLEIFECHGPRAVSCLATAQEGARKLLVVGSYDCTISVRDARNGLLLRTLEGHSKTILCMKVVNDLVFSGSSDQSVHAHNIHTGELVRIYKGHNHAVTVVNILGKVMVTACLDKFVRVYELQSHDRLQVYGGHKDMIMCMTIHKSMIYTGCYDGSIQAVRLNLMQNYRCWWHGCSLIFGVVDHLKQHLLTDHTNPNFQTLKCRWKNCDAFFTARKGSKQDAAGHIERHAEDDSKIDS
UniProt Q9H3R0: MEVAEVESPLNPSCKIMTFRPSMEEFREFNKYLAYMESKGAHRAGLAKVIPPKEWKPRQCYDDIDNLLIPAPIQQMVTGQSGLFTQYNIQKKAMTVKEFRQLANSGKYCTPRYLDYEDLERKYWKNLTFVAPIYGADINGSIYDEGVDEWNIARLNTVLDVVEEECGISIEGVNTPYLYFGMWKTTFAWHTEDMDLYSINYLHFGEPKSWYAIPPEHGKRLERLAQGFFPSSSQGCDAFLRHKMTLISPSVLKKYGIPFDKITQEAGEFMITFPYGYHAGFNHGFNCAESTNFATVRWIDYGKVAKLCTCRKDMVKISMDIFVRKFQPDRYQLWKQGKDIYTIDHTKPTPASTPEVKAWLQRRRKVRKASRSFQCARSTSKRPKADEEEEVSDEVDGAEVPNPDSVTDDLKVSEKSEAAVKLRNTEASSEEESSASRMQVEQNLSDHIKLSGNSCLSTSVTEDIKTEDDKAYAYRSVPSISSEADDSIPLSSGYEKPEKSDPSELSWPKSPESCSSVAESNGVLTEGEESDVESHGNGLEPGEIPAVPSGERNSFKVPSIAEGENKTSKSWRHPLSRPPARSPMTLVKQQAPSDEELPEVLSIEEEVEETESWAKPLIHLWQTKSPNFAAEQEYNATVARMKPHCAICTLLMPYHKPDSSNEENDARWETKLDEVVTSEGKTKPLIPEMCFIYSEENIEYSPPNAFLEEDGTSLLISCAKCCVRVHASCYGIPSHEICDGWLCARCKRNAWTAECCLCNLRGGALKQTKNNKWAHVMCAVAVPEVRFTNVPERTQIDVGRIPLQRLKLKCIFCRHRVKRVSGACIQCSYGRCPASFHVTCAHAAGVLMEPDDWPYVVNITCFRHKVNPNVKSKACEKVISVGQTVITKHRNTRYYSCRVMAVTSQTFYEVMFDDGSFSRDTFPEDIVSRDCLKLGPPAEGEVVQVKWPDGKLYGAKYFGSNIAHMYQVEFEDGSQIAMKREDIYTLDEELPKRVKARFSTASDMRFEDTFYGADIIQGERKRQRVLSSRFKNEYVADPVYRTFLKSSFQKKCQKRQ
UniProt Q9H5J8: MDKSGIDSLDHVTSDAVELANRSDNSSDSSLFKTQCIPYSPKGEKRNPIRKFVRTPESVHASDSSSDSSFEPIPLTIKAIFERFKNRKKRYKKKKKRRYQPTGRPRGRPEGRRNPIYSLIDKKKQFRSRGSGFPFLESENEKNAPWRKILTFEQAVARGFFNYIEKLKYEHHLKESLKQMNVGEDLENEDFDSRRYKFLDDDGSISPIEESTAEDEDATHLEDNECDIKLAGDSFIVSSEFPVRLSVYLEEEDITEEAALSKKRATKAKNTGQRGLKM
UniProt Q9HAY2: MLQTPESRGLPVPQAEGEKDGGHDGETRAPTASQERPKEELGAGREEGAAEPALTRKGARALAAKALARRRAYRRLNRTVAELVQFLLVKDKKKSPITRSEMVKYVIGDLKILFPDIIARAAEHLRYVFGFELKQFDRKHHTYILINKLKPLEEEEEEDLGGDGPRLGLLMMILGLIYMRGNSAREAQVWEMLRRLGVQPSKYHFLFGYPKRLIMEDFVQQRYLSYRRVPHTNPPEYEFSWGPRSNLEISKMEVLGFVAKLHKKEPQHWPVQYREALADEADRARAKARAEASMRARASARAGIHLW
UniProt Q9H582: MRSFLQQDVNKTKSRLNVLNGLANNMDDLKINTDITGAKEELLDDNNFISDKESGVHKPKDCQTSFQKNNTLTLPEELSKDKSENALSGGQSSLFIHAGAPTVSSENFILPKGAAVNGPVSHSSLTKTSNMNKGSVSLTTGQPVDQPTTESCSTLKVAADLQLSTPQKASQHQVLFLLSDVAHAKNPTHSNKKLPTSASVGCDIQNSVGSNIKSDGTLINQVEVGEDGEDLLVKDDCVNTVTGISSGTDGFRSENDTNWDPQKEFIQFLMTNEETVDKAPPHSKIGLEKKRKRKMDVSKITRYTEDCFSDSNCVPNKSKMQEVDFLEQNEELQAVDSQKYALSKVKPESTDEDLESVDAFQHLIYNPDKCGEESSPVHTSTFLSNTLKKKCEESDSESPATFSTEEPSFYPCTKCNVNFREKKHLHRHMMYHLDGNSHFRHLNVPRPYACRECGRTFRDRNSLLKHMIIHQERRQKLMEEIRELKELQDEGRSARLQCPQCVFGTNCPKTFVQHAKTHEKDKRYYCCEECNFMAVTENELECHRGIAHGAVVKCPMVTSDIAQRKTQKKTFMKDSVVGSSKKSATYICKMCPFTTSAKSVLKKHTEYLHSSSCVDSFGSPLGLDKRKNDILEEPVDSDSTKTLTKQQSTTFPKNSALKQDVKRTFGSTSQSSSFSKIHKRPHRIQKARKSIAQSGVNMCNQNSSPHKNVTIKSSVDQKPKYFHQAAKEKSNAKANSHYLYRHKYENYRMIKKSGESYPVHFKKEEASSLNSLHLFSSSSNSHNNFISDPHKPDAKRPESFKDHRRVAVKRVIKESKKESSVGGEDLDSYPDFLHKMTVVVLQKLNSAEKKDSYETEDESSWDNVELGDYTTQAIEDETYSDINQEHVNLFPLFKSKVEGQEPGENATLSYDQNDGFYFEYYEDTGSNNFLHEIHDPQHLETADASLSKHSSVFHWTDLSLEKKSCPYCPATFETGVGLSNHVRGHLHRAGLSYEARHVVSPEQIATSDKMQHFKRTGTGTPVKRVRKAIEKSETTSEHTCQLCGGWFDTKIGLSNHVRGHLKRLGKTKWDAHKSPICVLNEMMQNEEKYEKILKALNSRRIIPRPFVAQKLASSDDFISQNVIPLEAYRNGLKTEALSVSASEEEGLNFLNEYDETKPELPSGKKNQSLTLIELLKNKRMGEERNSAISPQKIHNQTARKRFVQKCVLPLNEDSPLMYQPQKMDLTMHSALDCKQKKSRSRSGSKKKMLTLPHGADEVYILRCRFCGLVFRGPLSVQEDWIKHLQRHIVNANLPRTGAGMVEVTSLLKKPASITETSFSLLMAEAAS

This is one part of the list. Most values lie at the level of the controls, where differences are scatter.

Compound in this test: Cc1nc(Nc2ncc(C(=O)Nc3c(C)cccc3Cl)s2)cc(N2CCN(CCO)CC2)n1 [dasatinib]
The test can be described thus: log2 fold change of tryptic peptide abundance, ligand vs vehicle (limited proteolysis) (log2 ratio); higher = more trypsin-susceptible (destabilized). Particulars: ligand concentration: 5 uM; sample: K562 cleared lysate.
Consider “CUEDC2 (peptide sequence: GPQKDELK, peptide start residue: 206) (UniProt Q9H467)”, for which the log2 fold change is -1.11.

Regarding “UniProt Q9H2K2 (peptide sequence: DNWNYTPLHEAAIK, peptide start residue: 279)”, the log2 fold change amounted to 0.605.

For “ZNF106 (peptide sequence: QKESELQMTSAASPHPGLLLDLK, peptide start residue: 649) (UniProt Q9H2Y7)”, the log2 fold change was 0.544.

As to “KDM4C (peptide sequence: LGPPAEGEVVQVK, peptide start residue: 934) (UniProt Q9H3R0)”, the log2 fold change was 0.384.

Regarding “UniProt Q9H4M7 (peptide sequence: RGPPSEAGGGKPPR, peptide start residue: 299)”, the log2 fold change was -0.41.

Consider “UniProt Q9HAF1 (peptide sequence: ELAELVKR, peptide start residue: 18)”, for which the log2 fold change was -0.42.

In the case of “UniProt Q9H320 (peptide sequence: KSSSQPSPSDPK, peptide start residue: 21)”, the log2 fold change turned out to be 0.079.

Regarding “UniProt Q9H5J8 (peptide sequence: RNPIYSLIDKK, peptide start residue: 113)”, the log2 fold change stood at 0.331.

“MAGEF1 (peptide sequence: ILFPDIIAR, peptide start residue: 112) (UniProt Q9HAY2)”: the log2 fold change turned out to be 0.2.

With “ZNF644 (peptide sequence: ASQHQVLFLLSDVAHAK, peptide start residue: 169) (UniProt Q9H582)”, the log2 fold change is -0.339.
